# Assay results published in PubChem BioAssay (NCATS).
# Chains of the proteins cited; added tags and fusions are not shown. Lines headed by an entry give the natural chain unless they say otherwise; changes in a name come on top.
# UniProt P04150: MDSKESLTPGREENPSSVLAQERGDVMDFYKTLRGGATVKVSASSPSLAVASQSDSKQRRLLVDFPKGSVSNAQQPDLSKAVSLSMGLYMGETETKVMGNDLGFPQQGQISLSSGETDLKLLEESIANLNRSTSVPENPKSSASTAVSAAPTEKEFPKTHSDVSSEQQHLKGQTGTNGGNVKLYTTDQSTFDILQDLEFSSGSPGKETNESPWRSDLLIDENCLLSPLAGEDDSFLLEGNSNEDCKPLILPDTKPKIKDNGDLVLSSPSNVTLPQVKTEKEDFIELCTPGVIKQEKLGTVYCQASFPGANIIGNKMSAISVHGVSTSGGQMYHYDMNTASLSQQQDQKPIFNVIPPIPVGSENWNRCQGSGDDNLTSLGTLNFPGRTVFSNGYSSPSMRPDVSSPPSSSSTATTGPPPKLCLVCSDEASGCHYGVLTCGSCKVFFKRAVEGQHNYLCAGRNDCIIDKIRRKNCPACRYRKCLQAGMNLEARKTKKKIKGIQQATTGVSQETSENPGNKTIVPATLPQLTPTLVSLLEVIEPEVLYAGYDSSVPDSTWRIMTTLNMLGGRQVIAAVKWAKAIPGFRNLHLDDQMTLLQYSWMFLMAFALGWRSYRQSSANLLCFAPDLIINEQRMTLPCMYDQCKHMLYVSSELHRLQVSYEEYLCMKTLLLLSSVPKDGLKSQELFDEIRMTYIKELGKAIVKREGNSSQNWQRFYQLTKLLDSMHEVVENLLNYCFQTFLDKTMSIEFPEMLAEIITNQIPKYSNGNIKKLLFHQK
# UniProt O15648: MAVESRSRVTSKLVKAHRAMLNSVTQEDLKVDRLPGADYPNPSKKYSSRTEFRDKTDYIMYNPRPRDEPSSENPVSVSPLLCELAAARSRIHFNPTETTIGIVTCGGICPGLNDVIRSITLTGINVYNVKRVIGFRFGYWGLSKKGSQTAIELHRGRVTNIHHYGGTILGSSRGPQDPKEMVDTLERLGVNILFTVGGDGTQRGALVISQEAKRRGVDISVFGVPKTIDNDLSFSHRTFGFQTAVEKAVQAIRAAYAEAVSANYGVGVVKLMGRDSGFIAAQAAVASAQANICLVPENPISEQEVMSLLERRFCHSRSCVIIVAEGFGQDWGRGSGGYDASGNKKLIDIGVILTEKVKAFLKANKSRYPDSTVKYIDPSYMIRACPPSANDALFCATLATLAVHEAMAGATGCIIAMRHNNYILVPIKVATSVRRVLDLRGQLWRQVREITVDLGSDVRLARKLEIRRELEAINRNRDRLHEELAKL
# UniProt P10635, whole entry, looked up: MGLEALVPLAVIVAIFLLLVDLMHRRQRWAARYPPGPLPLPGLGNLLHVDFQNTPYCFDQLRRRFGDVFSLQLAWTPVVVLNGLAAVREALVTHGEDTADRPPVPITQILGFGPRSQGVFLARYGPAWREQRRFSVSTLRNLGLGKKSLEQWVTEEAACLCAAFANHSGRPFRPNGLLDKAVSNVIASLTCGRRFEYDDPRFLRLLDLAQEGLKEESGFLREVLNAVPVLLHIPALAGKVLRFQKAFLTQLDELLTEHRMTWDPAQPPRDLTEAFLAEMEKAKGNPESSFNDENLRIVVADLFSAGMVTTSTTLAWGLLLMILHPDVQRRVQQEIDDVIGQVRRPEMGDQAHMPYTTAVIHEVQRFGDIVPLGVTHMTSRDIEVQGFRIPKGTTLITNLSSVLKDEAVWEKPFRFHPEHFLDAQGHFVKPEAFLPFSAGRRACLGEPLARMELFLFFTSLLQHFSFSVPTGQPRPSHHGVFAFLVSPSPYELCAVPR
# UniProt Q07343: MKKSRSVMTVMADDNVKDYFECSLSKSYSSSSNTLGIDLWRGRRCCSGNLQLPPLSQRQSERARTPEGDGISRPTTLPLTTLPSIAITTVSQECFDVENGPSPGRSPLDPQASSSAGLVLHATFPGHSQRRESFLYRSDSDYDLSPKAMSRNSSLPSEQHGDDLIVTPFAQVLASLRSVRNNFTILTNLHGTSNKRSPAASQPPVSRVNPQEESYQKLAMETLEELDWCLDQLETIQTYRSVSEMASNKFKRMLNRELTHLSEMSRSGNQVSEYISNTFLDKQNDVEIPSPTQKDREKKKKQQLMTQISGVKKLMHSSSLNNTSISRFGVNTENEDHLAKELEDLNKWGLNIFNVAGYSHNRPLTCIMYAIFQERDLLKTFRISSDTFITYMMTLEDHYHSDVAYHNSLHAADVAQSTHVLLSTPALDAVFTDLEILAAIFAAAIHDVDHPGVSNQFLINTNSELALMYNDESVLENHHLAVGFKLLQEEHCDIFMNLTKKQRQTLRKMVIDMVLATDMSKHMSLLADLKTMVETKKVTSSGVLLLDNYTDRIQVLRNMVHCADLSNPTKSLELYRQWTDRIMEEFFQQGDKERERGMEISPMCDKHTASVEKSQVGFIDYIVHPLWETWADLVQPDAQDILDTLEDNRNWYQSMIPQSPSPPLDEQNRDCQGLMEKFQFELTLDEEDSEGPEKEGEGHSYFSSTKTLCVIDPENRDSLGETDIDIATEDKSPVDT
# The inconclusive results got no clear call from the source; some entries with a clear call stand among them for comparison. For some of these results: A potency beside an inconclusive call is a rough fit, not a confirmed value. Activity calls are given as the source filed them. Unless noted, the call rests on the fitted dose curve; in most records, active means well fitted curve in the direction sought with a large enough effect; inconclusive means small, poorly fitted or top-dose-only effect, or another doubt; inactive means no such curve, though single readings can be large; an effect the other way counts as inactive or inconclusive.
# Assays:
# [1] = Stat Signaling Pathway (AID 446; active means well fitted curve in either direction with a large enough effect, not every such curve was filed as active; inconclusive means small, poorly fitted or top-dose-only effect, or another doubt;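 further: ME-180 cervical cancer cells given 40 pM IL-6 alongside compound; SIE-controlled beta-lactamase reporter measured as 460/530 nm FRET emission ratio; on the % scale 0 is the no-effect control and ±100 the full control effect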); settings: ME-180 SIE beta-lactamase reporter, IL-6 stimulated, 5 h; at 7.69 µM (top of the series) unless noted
# Summary of the method: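 IL-6/STAT signaling read in ME-180 cells via an SIE beta-lactamase reporter. Stimulus was 40 pM IL-6 (its AC50) for 5 hrs, so both activation and inhibition register.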
# [2] = target: Glucocorticoid receptor (Homo sapiens) (UniProt P04150); test: GR-GFP Redistribution (AID 450;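 active means compounds whose dose series gives a full or clear partial fitted curve of increased nuclear translocation; inconclusive means weak partial curve or effect only at the top dose; inactive means no dose-dependent translocation response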; further: potency means the concentration at half of the fitted maximal effect); settings: U2OS GR-GFP nuclear translocation, laser cytometry, 2 h
# [3] = target: ATP-dependent 6-phosphofructokinase (Trypanosoma brucei brucei) (UniProt O15648); test: qHTS Assay to Find Inhibitors of T. brucei phosphofructokinase: hit validation (AID 492961);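 further: luminescence reports ADP formed as PFK phosphorylates fructose-6-phosphate with ATP; on the % scale 0 is the no-effect control and ±100 the full control effect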
# Summary of the method: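 ADP-Glo luminescence read-out of ADP formed by 1.25 nM PFK from 0.1 mM ATP and 0.5 mM F6P (TEA pH 8.0, 45 min, RT). Compounds titrated; activity normalized to no-enzyme and full-enzyme controls.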
# [4] = test system: ATS189; test: qHTS profiling for inhibitors of Plasmodium falciparum proliferation (AID 504749); further: nearly all actives have a fitted effect of over 60% in size; further: potency means the concentration at half of the fitted maximal effect;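 on activity, negative = inhibition: 0% = DMSO vehicle and full inhibition = artemisinin control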; settings: P. falciparum in erythrocytes, SYBR Green DNA, 72 h; series mostly up to 28.7 µM
# Summary of the method: (§1)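 Three-day growth assay of blood-stage parasites in erythrocytes (0.3% parasitemia, 2.5% hematocrit) at 37 C, 5% CO2, quantified by SYBR Green DNA staining after overnight detergent lysis.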
# [5] = test system: CP191; test: as above; settings: P. falciparum in erythrocytes, SYBR Green DNA, 72 h; series mostly up to 12.8 µM
# Summary of the method: as §1
# [6] = test system: CP260; test: as above; settings: P. falciparum in erythrocytes, SYBR Green DNA, 72 h; series mostly up to 28.7 µM
# Summary of the method: as §1
# [7] = test system: CP265; test: as above; settings: P. falciparum in erythrocytes, SYBR Green DNA, 72 h; series mostly up to 28.7 µM
# Summary of the method: as §1
# [8] = test system: CP269; test: as above; settings: P. falciparum in erythrocytes, SYBR Green DNA, 72 h; series mostly up to 12.8 µM
# Summary of the method: as §1
# [9] = test system: CP291; test: as above; settings: P. falciparum in erythrocytes, SYBR Green DNA, 72 h; series mostly up to 28.7 µM
# Summary of the method: as §1
# [10] = test system: CP297; test: as above; settings: P. falciparum in erythrocytes, SYBR Green DNA, 72 h; activity, negative = inhibition: at 12.8 µM (top of the series) unless noted
# Summary of the method: as §1
# [11] = test system: CP305; test: as above; settings: P. falciparum in erythrocytes, SYBR Green DNA, 72 h; series mostly up to 28.7 µM
# Summary of the method: as §1
# [12] = test system: CP335; test: as above; settings: P. falciparum in erythrocytes, SYBR Green DNA, 72 h; series mostly up to 28.7 µM
# Summary of the method: as §1
# [13] = test system: DFO2036; test: as above; settings: P. falciparum in erythrocytes, SYBR Green DNA, 72 h; series mostly up to 28.7 µM
# Summary of the method: as §1
# [14] = test system: DIV14; test: as above; settings: P. falciparum in erythrocytes, SYBR Green DNA, 72 h; series mostly up to 28.7 µM
# Summary of the method: as §1
# [15] = test system: DIV17; test: as above; settings: P. falciparum in erythrocytes, SYBR Green DNA, 72 h; activity, negative = inhibition: at 28.7 µM (top of the series) unless noted
# Summary of the method: as §1
# [16] = test system: DIV30; test: as above; settings: P. falciparum in erythrocytes, SYBR Green DNA, 72 h; series mostly up to 28.7 µM
# Summary of the method: as §1
# [17] = test system: ECU; test: as above; settings: P. falciparum in erythrocytes, SYBR Green DNA, 72 h; series mostly up to 28.7 µM
# Summary of the method: as §1
# [18] = test system: GB4; test: as above; settings: P. falciparum in erythrocytes, SYBR Green DNA, 72 h; series mostly up to 28.7 µM
# Summary of the method: as §1
# [19] = test system: HB3; test: as above; settings: P. falciparum in erythrocytes, SYBR Green DNA, 72 h; series mostly up to 28.7 µM
# Summary of the method: as §1
# [20] = test system: JCK; test: as above; settings: P. falciparum in erythrocytes, SYBR Green DNA, 72 h; series mostly up to 28.7 µM
# Summary of the method: as §1
# [21] = test system: N140; test: as above; settings: P. falciparum in erythrocytes, SYBR Green DNA, 72 h; series mostly up to 28.7 µM
# Summary of the method: as §1
# [22] = test system: P93_24; test: as above; settings: P. falciparum in erythrocytes, SYBR Green DNA, 72 h; series mostly up to 28.7 µM
# Summary of the method: as §1
# [23] = test system: P94_40; test: as above; settings: P. falciparum in erythrocytes, SYBR Green DNA, 72 h; series mostly up to 28.7 µM
# Summary of the method: as §1
# [24] = test system: PAD; test: as above; settings: P. falciparum in erythrocytes, SYBR Green DNA, 72 h; series mostly up to 28.7 µM
# Summary of the method: as §1
# [25] = test system: PC15; test: as above; settings: P. falciparum in erythrocytes, SYBR Green DNA, 72 h; series mostly up to 28.7 µM
# Summary of the method: as §1
# [26] = test system: PC26; test: as above; settings: P. falciparum in erythrocytes, SYBR Green DNA, 72 h; activity, negative = inhibition: at 28.7 µM (top of the series)
# Summary of the method: as §1
# [27] = test system: TAB109; test: as above; settings: P. falciparum in erythrocytes, SYBR Green DNA, 72 h; series mostly up to 28.7 µM
# Summary of the method: as §1
# [28] = test system: TAB113; test: as above; settings: P. falciparum in erythrocytes, SYBR Green DNA, 72 h; series mostly up to 28.7 µM
# Summary of the method: as §1
# [29] = test system: TAB165; test: as above; settings: P. falciparum in erythrocytes, SYBR Green DNA, 72 h; series mostly up to 28.7 µM
# Summary of the method: as §1
# [30] = target: Glucocorticoid receptor (Homo sapiens) (UniProt P04150); test: GR-EFC Redistribution (AID 451; calls by dose curve; further: potency means the concentration at half of the fitted maximal effect); settings: CHO-K1 GR-EFC translocation, beta-gal luminescence, 2 h
# Summary of the method: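 Translocation of GR-ED fusion to nuclear EA restores b-gal, read by luminescence after 1 h room-temperature detection. Engineered CHO-K1 biosensor cells, 1,000/well, exposed 2 h at 37 C to titrations up to 46 uM final.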
# [31] = qHTS Assay for Identification of Small Molecule Agonists for Hypoxia Response Element Signaling Pathway (AID 914; active means well fitted activation curve with a large enough effect in the signal ratio, with a control signal flat, not every such curve was filed as active; inconclusive means small, poorly fitted or top-dose-only effect, or effect the other way, or a change in a side signal; the % refers to the signal ratio; further: potency means the concentration at half of the fitted maximal effect; on activation: % of control where 0% means no effect); settings: ME-180 (cervical carcinoma) HRE-bla reporter, beta-lactamase ratio, CoCl2, 17 h; activation: active compounds read high
# Summary of the method: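 Cells were plated overnight, pin-dosed with compound in a titration series, co-stimulated with EC50 CoCl2 and incubated 17 hours at 37 degrees Celsius. CCF4 substrate was then loaded, and AC50 values came from the 460nm/530nm ratio.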
# [32] = target: Cytochrome P450 2D6 (Homo sapiens) (UniProt P10635); test: qHTS Assay for Inhibitors and Substrates of Cytochrome P450 2D6 (AID 891); settings: recombinant CYP2D6, luciferin-ME EGE luminescence; activity change, negative = inhibition: at 57.1 µM (top of the series); further: potency means the concentration at half of the fitted maximal effect; nearly all actives have a fitted effect of over 60% in size
# Summary of the method: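 Human CYP2D6 (5 nM) with 30 uM Luciferin-ME EGE (at Km) in 100 mM KPO4, compound preincubated 10 min, then NADPH regeneration system for 60 min at room temperature. Luciferin read by luminescence; normalized to 1.43 uM quinidine.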
# [33] = target: 3',5'-cyclic-AMP phosphodiesterase 4B (Homo sapiens) (UniProt Q07343); test: qHTS Assay for Inhibitors of PDE-IV (AID 607; active means well fitted activation curve with a large enough effect in the main read-out, with a control signal flat, not every such curve was filed as active; inconclusive means small, poorly fitted or top-dose-only effect, or effect the other way, or a change in a side signal; further: % of control where 0% means no effect); settings: HEK293 ACTOne CNG channel cells, membrane potential fluorescence; activation (PDE inhibition): at 22.9 µM (top of the series)
# Summary of the method: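 Live HEK293 cells with a modified cyclic nucleotide-gated (CNG) channel report intracellular cAMP via membrane-potential dye fluorescence (ex 535/em 590 nm). Endogenous PDE-IV was targeted. Compounds were tested at up to 22.9 uM final; RO 20-1724 100 uM served as control.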
# [34] = test system: CP192; test: qHTS profiling for inhibitors of Plasmodium falciparum proliferation (AID 504749); further: nearly all actives have a fitted effect of over 60% in size; further: potency means the concentration at half of the fitted maximal effect;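 on activity, negative = inhibition: 0% = DMSO vehicle and full inhibition = artemisinin control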; settings: P. falciparum in erythrocytes, SYBR Green DNA, 72 h; activity, negative = inhibition: at 28.7 µM (top of the series)
# Summary of the method: as §1
# [35] = test system: CP211; test: as above; settings: P. falciparum in erythrocytes, SYBR Green DNA, 72 h; series mostly up to 28.7 µM
# Summary of the method: as §1
# [36] = test system: CP256; test: as above; settings: P. falciparum in erythrocytes, SYBR Green DNA, 72 h; series mostly up to 28.7 µM
# Summary of the method: as §1
# [37] = test system: CP266; test: as above; settings: P. falciparum in erythrocytes, SYBR Green DNA, 72 h; activity, negative = inhibition: at 28.7 µM (top of the series)
# Summary of the method: as §1
structure (smiles),measurement,setting,value
O=C(c1ccncc1)N1CCC2(CC1)CCN(c1ccc(-c3ccccc3)cc1)CC2,"activity, negative = inhibition",[1],inactive: -9.73%
c1ccc(-c2nc(NCC3CCCO3)c3ccccc3n2)nc1 (stereo not given),"activity, negative = inhibition",[1],inactive: -6.67% [at 17.2 µM]
CCN(CC)CCN1C(=O)C(=O)/C(=C(/O)c2ccc(F)cc2)C1c1ccncc1 (stereo not given),"activity, negative = inhibition",[1],inactive: 1.89% [at 17.2 µM]
C[N+](C)(N)Cc1csc(-c2ccc(Cl)cc2)n1,"activity, negative = inhibition",[1],inactive: 0.559%
Cc1nn(C)cc1/C=N/O,"activity, negative = inhibition",[1],inactive: 4.83% [at 17.2 µM]
O=C(O)[C@H](CCc1ccccc1)N1C(=O)c2ccccc2C1=O,"activity, negative = inhibition",[1],inactive: 8.91%
COc1ccccc1-c1cncnc1NCc1cnc(C)cn1,"activity, negative = inhibition",[1],inactive: 4.26%
same,Potency,[2],inconclusive: 54.4 µM [single point]
CN(C)CCn1nnnc1SCC1=C(C(=O)O)N2C(=O)[C@@H](NC(=O)Cc3csc(N)n3)[C@@H]2SC1,"activity, negative = inhibition",[1],inactive: -1.42% [at 17.2 µM]
same,Potency,[3],inactive
same,Potency,[4],"inconclusive: 7.94 µM [inhibitor, single point]"
same,Potency,[5],"inconclusive: 10 µM [inhibitor, single point]"
same,Potency,[6],"inconclusive: 10 µM [inhibitor, single point]"
same,Potency,[7],"inconclusive: 3.55 µM [inhibitor, single point]"
same,Potency,[8],"inconclusive: 7.21 µM [inhibitor, single point]"
same,Potency,[9],inactive
same,Potency,[10],inactive
same,Potency,[11],inactive
same,Potency,[12],"inconclusive: 5.73 µM [inhibitor, single point]"
same,Potency,[13],"inconclusive: 10 µM [inhibitor, single point]"
same,Potency,[14],"inconclusive: 5.1 µM [inhibitor, single point]"
same,Potency,[15],"inconclusive: 8.09 µM [inhibitor, single point]"
same,Potency,[16],"inconclusive: 5.73 µM [inhibitor, single point]"
same,Potency,[17],"inconclusive: 7.08 µM [inhibitor, single point]"
same,Potency,[18],"inconclusive: 8.09 µM [inhibitor, single point]"
same,Potency,[19],"inconclusive: 7.08 µM [inhibitor, single point]"
same,Potency,[20],"inconclusive: 7.08 µM [inhibitor, single point]"
same,Potency,[21],"inconclusive: 10 µM [inhibitor, single point]"
same,Potency,[22],"inconclusive: 7.08 µM [inhibitor, single point]"
same,Potency,[23],"inconclusive: 7.94 µM [inhibitor, single point]"
same,Potency,[24],"inconclusive: 3.55 µM [inhibitor, single point]"
same,Potency,[25],"inconclusive: 8.91 µM [inhibitor, single point]"
same,Potency,[26],"inconclusive: 8.09 µM [inhibitor, single point]"
same,Potency,[27],"inconclusive: 7.08 µM [inhibitor, single point]"
same,Potency,[28],"inconclusive: 5.01 µM [inhibitor, single point]"
same,Potency,[29],"inconclusive: 7.08 µM [inhibitor, single point]"
CS(=O)(=O)c1ccc2nc(NC(NC(=O)c3ccco3)(C(F)(F)F)C(F)(F)F)sc2c1,"activity, negative = inhibition",[1],inactive: -18.9% [at 17.2 µM]
O=C(Nc1nnc(SCc2ccccc2F)s1)c1ccco1,"activity, negative = inhibition",[1],inactive: -4.78% [at 17.2 µM]
C[C@]1(c2ccccc2)O[C@@H]2C[C@@H]3[C@@H]4CCC5=CC(=O)C=C[C@@]5(C)[C@]4(F)[C@H](O)C[C@]3(C)[C@@]2(C(=O)CO)O1,"activity, negative = inhibition",[1],inactive: -4.73%
same,Potency,[30],active: 2.31 nM
same,Potency,[31],"inconclusive: 2.5 nM [inhibitor, full curve]"
CC(C)(C)c1ccc(O)c(CN(Cc2c(O)ccc3ccccc23)C2CCCCC2)c1,"activity, negative = inhibition",[1],inactive: -13.7%
same,Potency,[2],inactive: > 46 µM
same,Potency,[32],active: 794 nM
same,activation,[31],inactive: 2.73%
NC(=O)SCC(=O)Nc1ccc2ncccc2c1,"activity, negative = inhibition",[1],inconclusive: -4.33% [inhibitor]
same,Potency,[2],inactive: > 46 µM
CCOC(=O)O[C@@H](C)OC(=O)[C@@H]1N2C(=O)[C@@H](NC(=O)[C@@H](N)c3ccccc3)[C@H]2SC1(C)C,"activity, negative = inhibition",[1],inconclusive: 31.7% [activator] [at 17.2 µM]
same,Potency,[33],inactive
same,Potency,[5],inactive
same,Potency,[34],"inconclusive: 22.8 nM [inhibitor, partial curve, poor fit]"
same,Potency,[35],inactive
same,Potency,[36],inactive
same,Potency,[37],inactive
same,Potency,[12],inactive

# Pulled one by one from the entries so far (two):
structure (smiles),measurement,setting,value
CN(C)CCn1nnnc1SCC1=C(C(=O)O)N2C(=O)[C@@H](NC(=O)Cc3csc(N)n3)[C@@H]2SC1,Potency,[14],"inconclusive: 5.1 µM [inhibitor, single point]"
same,Potency,[26],"inconclusive: 8.09 µM [inhibitor, single point]"
